Results reported in PubChem BioAssay AID2685 (National Center for Advancing Translational Sciences (NCATS), 2010).
The other results are listed elsewhere or left out. The main result of the screen is listed elsewhere. These columns were measured beside it and carry no call. The list favours compounds with an active or inconclusive main result. Words in brackets tell the shape of the fitted curve; partial curves, single points and poor fits give uncertain potencies.

Assay: qHTS Assay for Lipid Storage Modulators in Drosophila S3 Cells;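 for cell number change: cells counted by Cell Tracker Red CMTPX staining in the red channel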
Conditions: BODIPY lipid droplet fluorescence, 18-24 h; for cell number change: measured here: cell count max response, cells fed with added oleic acid; for AC50: measured here: lipid fluorescence (Fed channel) AC50, cells fed with added oleic acid
Text: NIH Molecular Libraries Probe Production Centers Network [MLPCN] NIH Chemical Genomics Center [NCGC] MLPCN Grant: 1 R03 MH085686-01 Assay Submitter (PI): Beller, Mathias; Max-Planck-Institut fur Biophysikalische Chemie NCGC Assay Overview: Storing lipids as a reservoir for energy or the anabolism of elementary metabolites is a common feature of probably all cells and is conserved from bacteria to humans. The universal cellular lipid storage organelle is the so-called lipid storage droplet (LD). Although ubiquitous, LDs share a simple structure composed of a hydrophobic core that harbors the storage lipids, which is shielded by a droplet-specific phospholipid monolayer to which proteins are attached. The current model of LD biogenesis involves an incorporation of the lipid core into the membrane leaflets of the endoplasmic reticulum (ER) followed by a subsequent budding-like maturation of a LD, which ultimately pinches off. Once released, LD volume can increase by localized lipogenesis or fusion of existing droplet. Storage lipids are re-mobilized enzymatically by lipase activity. Lipase regulation in the adipocyte is heavily studied and involves multiple components including catecholamine signaling, the LD-associated proteins Perilipin and comparative gene identification (CGI-58) and at least two lipases named hormone sensitive lipase (HSL) and adipocyte triglyceride lipase (ATGL). LD regulation outside of the adipocyte is poorly understood and only few components are known. However, there is an urgent need to learn more about ectopic fat depots as mislocalized storage of lipids, for example in the liver or muscle, is an eminent health problem associated with insulin resistance or the metabolic syndrome. We developed a laser-scanning cytometer assay to enable 1,536-well screening and combined the results of the small molecules screen with an RNAi database based on lipid storage.
Triacsin C (Sigma-Aldrich T-4540), an inhibitor of long-chain fatty acyl CoA synthetase that blocks synthesis of triglycerides, was used as a positive control for lipid under-storage. A total of 23 nL of compound solution of different concentrations were transferred to the assay plates using a Kalypsys pin tool equipped with a 1,536-pin array containing 10-nL slotted pins (FP1S10, 0.457-mm diameter, 50.8 mm long; V&P Scientific). One microliter of oleic acid (400 uM) was added, and the plate was lidded with stainless steel rubber gasket lined lids containing pinholes. […] Fluorescence was detected by excitation of the fluorophores with a 488-nm laser on an Acumen Explorer (TTP Lab Tech). […] Cells were detected using channel 3 (575-640 nm) with 5-um width and 100-um depth filters. The ratio of the number of objects in PMT channel 2 over the number of objects in PMT channel 3 was also calculated. […]

Structure (SMILES): CC(c1ccccc1)N1C(=O)c2ccc(C(=O)Nc3ccccc3C(=O)O)cc2C1=O (centres undefined)
- cell number change: -7.33%
- AC50: 0.82 µM [rising, full curve, poor fit]

Structure (SMILES): Cc1cccc(S(=O)(=O)Nc2nc3ccccc3nc2Nc2cccc(C(=O)O)c2)c1
- cell number change: -8.4%
- AC50: 6.51 µM [rising, single point]
